In PubChem BioAssay AID493014 (National Center for Advancing Translational Sciences (NCATS), 2011):
Some of the results follow. These are further read-outs of the screen, such as a control signal, another cell line or another target. No call is given for them. The list favours compounds with an active or inconclusive main result. Potencies come from curve fits of mixed quality, noted in brackets.

Test: qHTS Assay to Find Inhibitors of Chronic Active B-Cell Receptor Signaling
Details: ABC-DLBCL IkBa-CBG/CBR reporter, luminescence ratio (green luciferase fused to IkBa over red control in TMD8 lymphoma cells), 4 h
In short: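 TMD8 ABC-DLBCL cells carrying doxycycline-inducible green luciferase fused to IkappaBalpha plus unfused red luciferase were exposed to compounds (up to 46 uM) for 4 hrs at 37C. Activity came from the overlap-corrected green/red luminescence ratio.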

[1] = measured here: CBR red luminescence, cell number
[2] = measured here: IkBa-CBG green luminescence

SMILES	AC50 [1]	AC50 [2]
Cc1ccc(S(=O)(=O)NC(=O)Nc2ccc(C)cc2C)cc1	14.1 µM [rising, partial curve, poor fit]	–
COc1ccc(OC)c(NC(=O)c2cccc(NC(=O)c3ccccc3)c2)c1	12.6 µM [falling, partial curve, poor fit]	–
O=C(Nc1c(-c2ccccc2)nc2c(Br)cc(Br)cn12)c1ccco1	35.5 µM [rising, single point]	–
CCn1c(=O)c(C(=O)NNC(=O)c2ccccc2Cl)c(O)c2ccccc21	4.47 µM [falling, partial curve, poor fit]	–
COc1ccc(CNC(=O)C2CCC(CNC(=O)[C@@H]3Cc4ccccc4CN3)CC2)cc1 (some centres not stated)	6.31 µM [falling, partial curve]	–
COc1ccc(C(=O)NC(=S)Nc2ccc3c4c(cccc24)CC3)cc1OC	2.06 µM [rising, full curve]	–
C/C(=N\NC(=O)c1cccc(C)c1O)c1ccc(NC(=O)Cc2ccccc2)cc1	22.4 µM [falling, single point]	–
Cc1noc(C)c1NC(=O)Nc1cccc2c1O[C@H](CN(C)C(=O)Nc1ccc(C(F)(F)F)cc1)[C@@H](C)CN([C@H](C)CO)C2=O	14.6 µM [rising, partial curve, poor fit]	–
COc1nc(SCC(=O)Nc2ccccc2Cl)nc(N(C)C)n1	35.5 µM [falling, partial curve, poor fit]	–
COc1ccc2c(c1)oc(=O)c1cc(OC)ccc12	3.16 µM [rising, single point]	–
O=c1c(=Nc2ccccc2O)c(=O)c2ccccc12	12.6 µM [falling, partial curve]	–
CC(=O)n1cc(/C=N/NC(=O)c2ccccc2O)c2ccccc21	6.31 µM [falling, partial curve]	–
Cc1ccccc1C(=O)NC(=S)Nc1ccc(S(=O)(=O)N(C)c2ccccc2)cc1	3.66 µM [falling, full curve]	–
COc1ccccc1/C=C1\SC(=S)N(CC(=O)Nc2nnc(C)s2)C1=O	3.55 µM [rising, single point]	–
CCN(CC)c1nc(N)c2c(N)n(-c3ccccc3C)c(=S)c(C#N)c2c1C#N	9.2 µM [falling, partial curve]	–
COc1ccc(C(=O)/C=C/c2ccc(OC)c(O)c2)c(F)c1	11.6 µM [falling, partial curve, poor fit]	–
CC1CCN(C(=S)NC(=O)c2ccco2)CC1	–	22.4 µM [falling, partial curve, poor fit]
Fc1ccc(C2CCNCC2COc2ccc3c(c2)OCO3)cc1 (configuration not stated)	35.5 µM [falling, single point]	–
COc1ccc(-c2nc3ccccn3c2Cl)cc1	6.31 µM [rising, full curve, poor fit]	–
CC1=C(C(=O)O)N2C(=O)C(NC(=O)c3ccc(F)cc3)C2SC1 (configuration not stated)	25.9 µM [falling, single point]	–
COc1ccc(OC)c(/C=N/NC(=O)c2cc3c(OC)cccc3[nH]2)c1	3.98 µM [falling, full curve]	–

SMILES	AC50 [1]	AC50 [2]
COc1ccccc1-c1cc(-c2cc(Cl)ccc2O)n[nH]1	20 µM [falling, single point]	–
CC(/C=N/NC(=O)c1ccccc1F)=C\c1ccccc1	20 µM [falling, partial curve, poor fit]	–
O=C1C=CC(=O)N1N(c1ccccc1)c1ccccc1	8.2 µM [falling, partial curve, poor fit]	–
CCC(=O)Nc1sc(C(=O)N2CCCCC2)c(C)c1C#N	35.5 µM [rising, single point]	–
CC(C)=CC(=O)OCC(=O)NC(=O)NC(C)(C)C	1.03 µM [falling, full curve, poor fit]	–
Cc1ccc(C(=O)NCCn2c(N)c(C#N)c3nc4ccccc4nc32)cc1	1.64 µM [rising, partial curve, poor fit]	–
COc1ccccc1CCNC(=O)c1ccc2nc[nH]c2c1	17.8 µM [falling, partial curve, poor fit]	–
Cc1onc(-c2ccccc2)c1C(=O)N/N=C/c1cc(Br)c(O)c(Br)c1	15.8 µM [rising, single point]	–
Fc1ccc(NC(=S)N2CCOCC2)c(F)c1	0.794 µM [rising, full curve, poor fit]	–
COc1ccccc1-c1c(C)nn2c(N)c(-c3ccccc3)cnc12	35.5 µM [falling, single point]	–
O=C(Nc1nnc(C2=COCCO2)o1)c1cccc(F)c1	4.47 µM [falling, partial curve]	–
O=C(N/N=C/C(Cl)=C\c1ccccc1)c1ccco1	22.4 µM [falling, single point]	–
N#Cc1c(SCC(=O)Nc2nc3ccccc3s2)sc2c(O)cc(=O)[nH]c12	18.4 µM [falling, partial curve]	–
O=C(NCCC1=CCCCC1)c1ccc2c(c1)ncn2-c1cccc(Cl)c1	3.55 µM [rising, full curve, poor fit]	–
COc1cc(-c2nc3cnccn3c2Nc2ccccc2)ccc1O	23.1 µM [falling, single point]	–
CCOc1ccc2[nH]cc(C(=O)NCCCN3CCOCC3)c(=O)c2c1	0.891 µM [rising, full curve, poor fit]	–
O=C(CCCCCCN1C(=O)c2ccccc2C1=O)N1CCC(c2ccccc2)C1 (configuration not stated)	–	32.6 µM [falling, partial curve, poor fit]
Cc1ccc(NC(=O)CSc2ncccc2C(=O)Oc2cccc([N+](=O)[O-])c2)cc1Cl	0.651 µM [falling, full curve, poor fit]	–
C=CCNC(=O)COCc1cc(-c2ccc3c(c2)OCO3)on1	15.8 µM [rising, single point]	–
O=C(O)c1cccc(NS(=O)(=O)c2ccc3nnn(O)c3c2)c1	2.91 µM [rising, single point]	–
COc1ccc(NC(=O)Cn2c(-c3ccc(OC)cc3)cn(-c3ccc(C)cc3)c2=O)cc1	29.1 µM [rising, single point]	–

Two compounds drawn at random from those above, as already listed:
SMILES	AC50 [1]	AC50 [2]
Fc1ccc(NC(=S)N2CCOCC2)c(F)c1	0.794 µM [rising, full curve, poor fit]	–
COc1ccccc1-c1c(C)nn2c(N)c(-c3ccccc3)cnc12	35.5 µM [falling, single point]	–
